No constants are given. Whether binding was seen depends on the method and setting. Binding seen in cells or lysates may run through a third protein. These calls come from enrichment with a bait or labelling near it, and not all partners need be listed. No binding means not detected with the bait. Where a sequence is shown, tags or fusion partners need not be part of it.
Molecular target: T1, 3×FLAG-Hand2 (zebrafish) (UniProt P57102)
T1 sequence: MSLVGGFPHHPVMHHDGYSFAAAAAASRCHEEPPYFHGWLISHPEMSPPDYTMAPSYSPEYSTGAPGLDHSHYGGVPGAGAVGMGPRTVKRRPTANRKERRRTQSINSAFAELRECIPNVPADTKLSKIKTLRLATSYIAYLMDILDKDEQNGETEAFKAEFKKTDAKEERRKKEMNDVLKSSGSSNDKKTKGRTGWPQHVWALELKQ
Assay: affinity purification with mass spectrometry; CoIP–MS: lysate of 400 deyolked 14 hpf embryos injected with 3×FLAG-hand2 or 3×FLAG-hand2 EDE mRNA; 800 μg soluble fraction on anti-FLAG M2 magnetic beads, 4 °C overnight; CoIP buffer 50 mM Tris–HCl pH 7.5, 150 mM NaCl, 1 mM EDTA, 1% Triton X-100; washed three times with TBS; background control 3×HA-hand2 mRNA-injected embryos

| Substance | binding |
| --- | --- |
| Tcf3b (zebrafish (endogenous in embryos)) | binds |
| transcription factor 3a (Tcf3a) (zebrafish (endogenous in embryos)) | no binding |

Reference: PMC11634778
